Results on five molecules are retold here after publication doi:10.1101/2021.01.04.425237.

Where two headings read alike, the source gives them in different places. These are yes or no findings as the source states them, for the method shown. Some entries that bind do so weakly or less than the wild type.

Common to all, as to test: two-hybrid
Experiment [1] deals with HolC (χ subunit of DNA polymerase III holoenzyme) of Escherichia coli (Escherichia coli) (UniProt P28905).
In experiment [2] the target is T1, YoaA (wild type), DinG-family helicase of Escherichia coli (Escherichia coli) (UniProt P76257).
T1 sequence: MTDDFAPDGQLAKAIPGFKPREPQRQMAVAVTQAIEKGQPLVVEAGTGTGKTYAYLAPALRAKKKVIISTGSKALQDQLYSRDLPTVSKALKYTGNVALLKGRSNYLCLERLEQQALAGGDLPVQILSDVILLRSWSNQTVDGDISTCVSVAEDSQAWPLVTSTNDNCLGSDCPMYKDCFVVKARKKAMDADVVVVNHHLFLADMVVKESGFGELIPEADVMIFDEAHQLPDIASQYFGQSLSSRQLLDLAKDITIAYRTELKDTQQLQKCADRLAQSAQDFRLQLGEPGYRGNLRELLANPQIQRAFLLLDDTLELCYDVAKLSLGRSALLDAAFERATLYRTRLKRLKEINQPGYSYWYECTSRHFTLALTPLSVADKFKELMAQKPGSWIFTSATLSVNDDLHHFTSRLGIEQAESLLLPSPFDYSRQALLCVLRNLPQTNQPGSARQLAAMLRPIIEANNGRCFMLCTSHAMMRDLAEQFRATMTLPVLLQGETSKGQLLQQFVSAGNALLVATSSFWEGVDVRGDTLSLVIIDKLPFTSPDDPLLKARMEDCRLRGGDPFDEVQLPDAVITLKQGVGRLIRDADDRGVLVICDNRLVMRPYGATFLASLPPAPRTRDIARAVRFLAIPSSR

In experiment [3] the target is YoaA R619A (Escherichia coli) (UniProt P76257).
Experiment [4] addresses YoaA T620A (Escherichia coli) (UniProt P76257).
Experiment [5] concerns the target YoaAΔ619-636 C terminal truncation (Escherichia coli) (UniProt P76257).
The target in experiment [6] is HolC (χ subunit of DNA polymerase III holoenzyme) of Escherichia coli (Escherichia coli) (UniProt P28905). The source holds these as a separate data set.

“YoaA R619A (from UniProt P76257 1-636) (enzyme)”: the binding entry in experiment [1] is on record as “no binding”.

For the molecule “YoaAΔ619-636 C terminal truncation (from UniProt P76257 1-618) (domain or fragment)”, the binding entry in experiment [1] is listed as “no binding”.

As to “HolC (χ subunit of DNA polymerase III holoenzyme) of Escherichia coli (from UniProt P28905 1-147)”, the binding result in experiment [2] is “binds”; in experiment [3], “no binding”; in experiment [4], “no binding”; in experiment [5], “no binding”.

Consider “YoaA T620A (from UniProt P76257 1-636) (enzyme)”, for which the binding entry in experiment [1] is on record as “no binding”.

B1: YoaA (wild type), DinG-family helicase of Escherichia coli (enzyme, UniProt P76257 1-636)
chain: T1 sequence
In the case of B1, the binding result in experiment [6] was “binds”.
